Data as given in publication PMC6728143.
The exact form of at least one protein or probe is not confirmed. At least one verdict rests on a figure or table, not on a statement of the authors.

Protein sequences, listed by entry. Tags and fused reporters are not part of them. Lines headed by an entry give the natural chain unless they say otherwise; changes in a name come on top.
UniProt P05455: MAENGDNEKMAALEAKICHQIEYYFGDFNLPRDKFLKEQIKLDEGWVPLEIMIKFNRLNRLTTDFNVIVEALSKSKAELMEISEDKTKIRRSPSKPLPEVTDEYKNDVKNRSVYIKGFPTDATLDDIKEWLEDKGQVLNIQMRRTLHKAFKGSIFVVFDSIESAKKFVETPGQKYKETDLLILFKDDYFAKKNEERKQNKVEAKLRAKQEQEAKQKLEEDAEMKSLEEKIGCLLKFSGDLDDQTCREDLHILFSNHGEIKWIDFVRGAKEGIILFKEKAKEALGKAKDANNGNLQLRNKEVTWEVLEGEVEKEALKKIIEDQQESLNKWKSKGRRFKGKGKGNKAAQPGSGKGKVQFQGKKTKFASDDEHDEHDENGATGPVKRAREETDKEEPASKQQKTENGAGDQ

Biological target: Lupus La protein (La) (Homo sapiens) (UniProt P05455)
Experiment: EMSA
Conditions: positive control for binding per legend; EMSA: 1 nM RNA, La 250 pM-2 uM; 25 mM Tris pH 8, 100 mM KCl, 1.5 mM MgCl2, 0.2 mM EGTA, 0.05% NP-40, 50 ug/ml heparin; 30 C 30 min, then ice 10 min; 6% gel at 4 C; recombinant protein; protein details: N-terminal 6xHis; label: 5' IRDye800CW

## UUUUUUUUUUUUUUUUUUUUUU [22 nt poly-uridine]
  binding result: binds
